Here are results for 16 molecules from PubChem BioAssay.

A short description of the assay: reducers of endogenous Her2 protein level, primary screen, SKBR3 breast tumor cells, AlphaScreen, ATP viability (AID 461).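 Also: percent of carrier control wells set as 100% viability.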 Conditions: 18-24 h, measured here: SKBR3 viability, ATP luminescence, at 10 µM.

Some of the results follow. The main result of the screen is listed elsewhere. These columns were measured beside it and carry no call. The list favours compounds with an active or inconclusive main result.

Take `C=CCOc1ccc(C2/C(=C(\O)c3c(C)[nH]c(C(=O)OC)c3C)C(=O)C(=O)N2CCN(C)C)cc1` (stereo unspecified): the viability amounted to 95%.
With `Cc1cccn2c(=O)c3cc(C#N)c(=NC(=O)c4ccncc4)n(Cc4ccco4)c3nc12` the figure was 110%; with `C/C(Cl)=C\Cn1c(NCCc2ccccc2)nc2c1c(=O)n(C)c(=O)n2C`, 86%.
For the molecule `Cc1ccc(C)c(N2CCN(CCCNC(=O)Cn3cc4c(n3)CCCCC4)CC2)c1`, the viability stood at 42%.
Under `Cn1nc(-c2ccc(N3CCCCC3)c(NC(=O)c3ccco3)c2)c2ccccc2c1=O` stands 107%.
Under `CCCCOc1ccc(C2C3CN(C(=O)OCC)CC=C3C(C#N)=C(N)C2(C#N)C#N)cc1OC` (stereo unspecified) stands 62%; under `Cc1ccc2nc(NC(=O)C3CCCN(S(=O)(=O)c4cccc5nonc45)C3)sc2c1` (stereo unspecified), 97.5%; under `Cn1cc(C(=O)NC2CCCCCCC2)c(=O)c2cc(S(=O)(=O)N3CCCC3)ccc21`, 76.5%.
With `Cc1ccc2c(c1)NC(=O)C(CC(=O)NCCCN1CCN(c3cc(Cl)ccc3C)CC1)O2` (stereo unspecified) the figure was 75.5%; with `COc1ccccc1C(=O)Nc1c2c(nn1-c1cccc(C)c1C)CS(=O)(=O)C2`, 50%.
With `O=C(CSc1nc(-c2ccco2)cc(C(F)(F)F)n1)N1CCCc2ccccc21`, the viability was 109%.
With `OC1C=CSc2nc3ccccc3n21` (stereo unspecified) the figure was 83.5%.
With `Cc1oc2cc3c(C(=O)OCCN(C)C)c(C)oc3cc2c1C(=O)OCCN(C)C` the figure was 92.5%.
On to `COc1cc(C2Nc3cccc4cccc(c34)N2)cc(OC)c1O`, for which the viability was 92.5%.
With `O=C(CN1C(=O)CC(c2ccco2)Sc2ccccc21)Nc1ccc2c(c1)OCCO2` (stereo unspecified) the figure was 130%; with `COc1ccc(C)cc1C(=O)CCC(=O)Nc1ccccc1N1CCOCC1`, 90%.
